Test results taken from PubChem BioAssay AID1347423 (Functional Genomics Laboratory (NCATS/FGL), 2020).
Out of some 52,000 sequences screened, about 210 (0.4%) were called active.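 The calls were made as follows: active = gene whose silencing raises cell survival under the drug, median off-target-corrected z-score across its silencing RNAs 2 or more; inactive = the rest.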 The list shows a part of the results.

Assay: Resistance to Poly (ADP-Ribose) Polymerase inhibitor: Gene Identification via Genome-wide siRNA Screen
Details: mouse BRCA2 R2336H ES cells, olaparib, CellTiter-Glo viability; stronger effect = higher value
Method in brief: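 Mouse BRCA2 R2336H ES cells were reverse-transfected with siRNA (20 nM final), treated at 48 h with 500 nM olaparib, and read by CellTiter-Glo after 72 h. Scores: MAD-based z per siRNA, median per gene, seed off-target correction.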

Sequence | z-score
CGUGACAAAUUGAAGGAAATT against Sh3d1B | inactive: 0.0786
GGAUCUCCUUUUUUUUCAATT against Gabrr1 | inactive: 2.27
AUGAGGAGACUCUUUGCUATT against Olfr1317 | inactive: 0.0996
CGGUUCUGCAUAAAAGAACTT against 9130023D20Rik | inactive: 0.397
GGGAAGGAUUAUGUCAAAUTT against Kit | inactive: 1.52
GCUCAAGGCUAAGAUCAUUTT against AI449705 | inactive: -1.31
GGUCAGAAUAUCCUCUUUUTT against Serpina9 | inactive: -2.71
GGAAAACGAAAGAAACGAUTT against Rab15 | inactive: -0.187
GGUAAAUUCUUUAAGGGACTT against Asah1 | inactive: -0.0846
GGAGCAUUGAUAUAUGUCATT against Rragc | inactive: 0.817
GGUGAUGUAUGUUACGCUGTT against Sfrs1 | inactive: -2.09
GGGAUAGAGGCAGUUUUGATT against Rras2 | inactive: 0.305
GGGUUUGAAGAGGUUUUCATT against 2610016F04Rik | inactive: -2.68
GCUCGUCUCAGACUUAUUUTT against Il15 | inactive: 0.839
GGUUUACCCAUCUUGGCCATT against Vwf | inactive: 0.328
GCCAUACAGGUAGCUUCUGTT against Tradd | inactive: 0.155
GGCUGAACAGAAUUAAGAATT against Surf6 | inactive: -0.146
GCAAGAUGCACCUAGUGACTT against Cish | inactive: 2.95
CCGAAUUCGUGUGAAACUGTT against Ablim2 | inactive: 0.0303
GCACUUUUAAAUUAAGGUCTT against Casp12 | inactive: -0.362
GGAAAGAGUCAUGGAAAUATT against Supt16h | inactive: -2.1
GGCAGUUCAAAAGACCACATT against Zcchc7 | inactive: -0.655
CCUUUUUGGUACGAGACGCTT against Pik3r1 | inactive: 0.294

Sequence | z-score
CGUGCUUACAUAAUGGAAATT against Rnaseh1 | inactive: 0.314
GGAUCAGAAUUCUUCCCAGTT against Pnrc2 | inactive: 0.325
CGUAUGUUCUGUCAGAUAUTT against 5630401D24Rik | inactive: -0.807
GGAAAUACAGCUCGGAGCATT against Eaf2 | inactive: -1.68
GGACAUAAUGCAAAACAUUTT against 4933427L07Rik | inactive: -0.15
GGAAAGAAGCAGCGGACUUTT against Nme7 | inactive: -0.299
GGGUAGAAAAGUGCAAUUUTT against Has2 | inactive: 0.124
GCACUAAGAAAUGGAUCUATT against Igbp1 | inactive: -1.72
GGUGAUUGAUGAGAUUUACTT against D1Ertd578e | inactive: 1.09
GGGUGGCUUUCUAAUGUUGTT against Olfr362 | inactive: 0.486
GGAAAGCUACAGAACCAUUTT against Tm6sf1 | inactive: 0.0899
GGGAAUCUGAUGAAGAUGGTT against Grin3b | inactive: -1.49
GGGAGGAACAUCACCUCAGTT against V2r1 | inactive: 0.0176
CCGAAUCGUCCUAAACCAATT against Cyp11a1 | inactive: -0.532
GGUCAUUCUAGGCUACAAUTT against Crx | inactive: 0.986
GCCCUCAAUAAAUGCCAUCTT against Pcsk1n | inactive: 0.257
GGAUUCGCCUUUUCUACCGTT against Hoxb2 | inactive: 0.77
GGAAGCCUACCUUUAUAUUTT against Slc2a3 | inactive: 0.28
GUGGAAUUCAUGGAUGACATT against Rps28 | inactive: -2.51
GGCUGGUGUGACAUUGCCUTT against Pglyrp3 | inactive: 0.129
UGGAGGAUUACUCUUCUGCTT against LOC434484 | inactive: 0.737
CCCUAAUGAAUGGUCUCAUTT against B230382K22Rik | inactive: -0.616
GCCAUCACAAUUCUAAUCCTT against V2r1 | inactive: 1.02

Sequence | z-score
GGGAUCAGAGAUAUAGCCATT against V1ri1 | inactive: -1.46
GGCGUGACUUCCACAAGAGTT against Fabp4 | inactive: 0.274
GGCCUUCUUUGAUGUGAAGTT against B230113C15Rik | inactive: 1.88
CCACUUGUUGAUCAAGAGATT against Adamts15 | inactive: 0.323
GGAAACCAUCAAAGUAUGGTT against Ndufa6 | inactive: 0.238
GGAGCUAACAAAAUAGGCUTT against Epb4.1l4b | inactive: 0.242
CGUGUGAAGAAAAUUGAUGTT against Mmp27 | inactive: 0.81
GCAUUCGGUACUUAUUUGATT against C730031G17 | inactive: -0.36
GGGAUUUCAUCUUUGAAAGTT against 1500040F11Rik | inactive: 0.147
GGUGGUGAAGCUAAAGCAGTT against Prkaca | inactive: 1.88
GGAGCUGAACUAUUGUCAUTT against A630007B06Rik | inactive: 0.039
GGCCAAGUGCACCAUCCUATT against Gng13 | inactive: 0.793
CCUGUUGGACCUUAUUCCCTT against 1100001H23Rik | inactive: 0.623
GGAAACUUUUGGGAGAAAUTT against Itpr2 | inactive: 1.5
GGAAGGUGUCUGUAAUAUATT against Slamf9 | inactive: -0.311
GCGACAUCUACAAGUUCAUTT against Foxb2 | inactive: -0.362
CCCAUUUAGAAUUACGGCATT against Ppp2r2d | inactive: 0.582
CCUAAGUAGUGUUUGAACUTT against B530045E10Rik | inactive: -0.488
GGUACCAACAAGAUGACUGTT against Iigp2 | inactive: 1.68
CGUAGAAGUUGAUGAGUCATT against Numb | inactive: -0.766
GGAUAAUCAGGAAGGUACUTT against Blmh | inactive: -0.285

20 entries from above, as tab-separated lines:
Sequence	z-score
CGUGACAAAUUGAAGGAAATT against Sh3d1B	inactive: 0.0786
CGGUUCUGCAUAAAAGAACTT against 9130023D20Rik	inactive: 0.397
GCUCAAGGCUAAGAUCAUUTT against AI449705	inactive: -1.31
GGAGCAUUGAUAUAUGUCATT against Rragc	inactive: 0.817
GGGAUAGAGGCAGUUUUGATT against Rras2	inactive: 0.305
GGGUUUGAAGAGGUUUUCATT against 2610016F04Rik	inactive: -2.68
GGCUGAACAGAAUUAAGAATT against Surf6	inactive: -0.146
CCGAAUUCGUGUGAAACUGTT against Ablim2	inactive: 0.0303
GCACUUUUAAAUUAAGGUCTT against Casp12	inactive: -0.362
GGCAGUUCAAAAGACCACATT against Zcchc7	inactive: -0.655
CGUGCUUACAUAAUGGAAATT against Rnaseh1	inactive: 0.314
GGAUCAGAAUUCUUCCCAGTT against Pnrc2	inactive: 0.325
GGGUAGAAAAGUGCAAUUUTT against Has2	inactive: 0.124
GGGAUCAGAGAUAUAGCCATT against V1ri1	inactive: -1.46
GGAAACCAUCAAAGUAUGGTT against Ndufa6	inactive: 0.238
GCAUUCGGUACUUAUUUGATT against C730031G17	inactive: -0.36
GGGAUUUCAUCUUUGAAAGTT against 1500040F11Rik	inactive: 0.147
GGAGCUGAACUAUUGUCAUTT against A630007B06Rik	inactive: 0.039
GCGACAUCUACAAGUUCAUTT against Foxb2	inactive: -0.362
GGUACCAACAAGAUGACUGTT against Iigp2	inactive: 1.68
